The text below walks through data of patent US20120231497A1 (N.V. Organon, priority 2006, published 2012).

* marks the point of attachment. Boc = CC(C)(C)OC(=O)*

This series in a line: peptide synthesis. As to conditions: late stage modification step.

Substance Boc-GFFL-OH displayed a step yield of more than 95% yield.
